Measurements published in patent US20060094775A1, “Remedy for corneal ulcer” (priority 2003, published 2006).
For at least one compound, name, drawing or mass did not settle the structure.

Experiments:
Assay type in all cases: cell-based
[1] = test system: rabbit corneal stromal cells; test: Measurement of collagen degradation activity after three-dimensional collagen gel culture (hydroxyproline per well); conditions: IL-1β 0.1 ng/ml, 48 hr three-dimensional culture, various concentrations
Description: (§1) Rabbit corneal stromal cells were prepared and cultured according to the description of Mishima et al., Invest. Ophthalmol. Vis. Sci. 28, 1521-6 (1987). The rabbits were sacrificed by overdose of sodium pentobarbital. Eyeballs were enucleated, sclera was incised to remove cornea. Stroma was separated from epithelium and endothelium. Corneal stromal cells were detached from stroma by digesting with collagenase (Collagenase from Clostridium histolyticum, Sigma (U.S.A.) #C-0130) (2 mg/ml) at 37° C. for 3-4 hr. The cells were cultured in MEM supplemented with 10% fetal bovine serum (FBS), grown in an incubator (37° C. humidity 100%) in 5% CO2 and then passaged in MEM containing 10% FBS.
Collagen gel was prepared according to the manual of Nitta gelatin. To be specific, the obtained rabbit corneal stromal cells were washed with PBS(−), 0.05% Trypsin (1 ml) was added thereto, and the mixture was left in a CO2 incubator for several min to detach the cells. […] The number of the cells was counted with Burker-Turk hemocytometer (Kayagaki Irika Kogyo). […]
After three-dimensional culture, the medium was collected and non-degraded collagen fibril having a molecular weight exceeding 100 kDa was removed by ultrafiltration. […] The amount of the hydroxyproline in the hydrolysate was measured using an Ehrlich's reagent and a spectrophotometer (Bergman et al., Anal. Chem., 35, 1961-5 (1963)). […]

[2] = test system: proMMP-9, MMP-9, proMMP-2 and MMP-2 in rabbit corneal stromal cells; test: Gelatin zymography of culture medium for MMP-2 and MMP-9 forms after three-dimensional culture; conditions: 60 mg/ml plasminogen addition, IL-1β addition (Example 1)
Description: as §1
(§2) Collagen gel was prepared according to the manual of Nitta gelatin. To be specific, the obtained rabbit corneal stromal cells were washed with PBS(−), 0.05% Trypsin (1 ml) was added thereto, and the mixture was left in a CO2 incubator for several min to detach the cells. MEM (5 ml) containing 10% FBS was added to quench the trypsin reaction. The cell suspension was transferred to a 15 ml centrifuge tube, and centrifuged at 1500 rpm for 5 min. The supernatant was removed and the cells were suspended in a constant amount of serum free MEM. The number of the cells was counted with Burker-Turk hemocytometer (Kayagaki Irika Kogyo). The supernatant was removed by centrifugation at 1500 rpm for 5 min. […]

[3] = test system: glycosylated proMMP-1, proMMP-1, MMP-1, proMMP-3 and MMP-3 in rabbit corneal stromal cells; test: Western blot of culture medium for MMP-1 and MMP-3 forms after three-dimensional culture; conditions: IL-1β addition
Description: as §1, §2

[4] = test system: TIMP-1 production (mRNA) in rabbit corneal stromal cells; test: RT-PCR of TIMP-1 mRNA after three-dimensional culture; conditions: IL-1β 0.1 ng/ml; dexamethasone 1 nM, triptolide 3 μM
Description: as §1
Collagen gel was prepared according to the manual of Nitta gelatin. […] The number of the cells was counted with Burker-Turk hemocytometer (Kayagaki Irika Kogyo). […]
After three-dimensional culture, collagenase was added to dissolve the collagen gel, and the cells were collected. […] This cDNA, QuantiTect SYBR Green PCR Master Mix solution (QuantiTect-SYBR Green PCR kit, manufactured by Qiagen, Germany), nuclease free water and rabbit TIMP-1 primer (synthesis at Nippon Gene Institute, Han et al., Nagoya J. Med. Sci. 62, 115-126 (1999)) were mixed, and the expression amount of TIMP-1 mRNA was examined using LightCycler (manufactured by Roche Molecular Biochemicals, Germany).

C[C@@H]1C[C@H]2[C@@H]3CCC4=CC(=O)C=C[C@]4(C)[C@@]3(F)[C@@H](O)C[C@]2(C)[C@@]1(O)C(=O)CO [dexamethasone, reference compound]
effect on IL-1β induced collagen degradation (amount of degraded collagen as hydroxyproline per well) [1]: suppresses IL-1β induced collagen degradation in a concentration dependent manner | effect on expression and activation of proMMPs (gelatin zymography) [2]: activation of proMMP-2 and proMMP-9 | effect on expression and activation of proMMPs (Western blot) ([3]; 60 mg/ml plasminogen addition): suppresses activation of proMMP-1, increase of proMMP-3 | effect on expression of proMMPs (Western blot) ([3]; plasminogen non-addition): suppresses increase of glycosylated proMMP-1, proMMP-1 and proMMP-3 induced by IL-1β | effect on TIMP-1 production (relative copy number of mRNA) [4]: suppresses TIMP-1 production (mRNA level) induced by IL-1β
